Source: article PMC9744909, “Functional crosstalk between the cohesin loader and chromatin remodelers” (Nature Communications, 2022)
These are yes or no findings as the source states them, for the method shown. For part of these data: In cells and extracts the contact can be indirect. Some results given as binding are weak or reduced against the parent protein; the word gives no strength. For part of these data: Sequences can lack the tags named with a protein. Blank lines part the entries; values can stand above or below the molecule they belong to.

Amino acid sequences for entries named in this document (tags omitted). Residues count along the entry.
UniProt Q06488: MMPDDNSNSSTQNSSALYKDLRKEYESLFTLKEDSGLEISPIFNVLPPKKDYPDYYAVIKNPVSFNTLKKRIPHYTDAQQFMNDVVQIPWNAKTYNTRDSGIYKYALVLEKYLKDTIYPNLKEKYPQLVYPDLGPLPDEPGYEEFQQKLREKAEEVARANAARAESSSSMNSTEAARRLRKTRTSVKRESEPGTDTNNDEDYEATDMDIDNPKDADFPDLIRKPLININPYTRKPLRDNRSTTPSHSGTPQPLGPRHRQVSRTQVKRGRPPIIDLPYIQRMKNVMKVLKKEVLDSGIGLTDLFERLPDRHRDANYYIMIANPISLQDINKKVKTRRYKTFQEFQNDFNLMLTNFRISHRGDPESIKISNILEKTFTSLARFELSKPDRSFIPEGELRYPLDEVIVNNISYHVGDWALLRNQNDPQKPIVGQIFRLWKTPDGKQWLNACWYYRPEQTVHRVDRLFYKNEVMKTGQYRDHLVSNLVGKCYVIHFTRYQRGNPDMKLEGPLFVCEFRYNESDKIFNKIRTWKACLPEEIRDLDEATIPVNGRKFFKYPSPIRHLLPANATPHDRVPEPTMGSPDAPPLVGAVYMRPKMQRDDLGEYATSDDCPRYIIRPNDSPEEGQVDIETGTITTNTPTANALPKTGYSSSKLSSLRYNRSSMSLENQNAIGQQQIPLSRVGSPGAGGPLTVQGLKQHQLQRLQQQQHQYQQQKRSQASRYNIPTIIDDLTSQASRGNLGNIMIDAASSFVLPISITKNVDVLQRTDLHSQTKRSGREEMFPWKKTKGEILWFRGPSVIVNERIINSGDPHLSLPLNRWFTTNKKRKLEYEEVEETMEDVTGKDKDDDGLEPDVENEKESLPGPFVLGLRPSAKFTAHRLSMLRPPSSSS
UniProt Q9UTN6: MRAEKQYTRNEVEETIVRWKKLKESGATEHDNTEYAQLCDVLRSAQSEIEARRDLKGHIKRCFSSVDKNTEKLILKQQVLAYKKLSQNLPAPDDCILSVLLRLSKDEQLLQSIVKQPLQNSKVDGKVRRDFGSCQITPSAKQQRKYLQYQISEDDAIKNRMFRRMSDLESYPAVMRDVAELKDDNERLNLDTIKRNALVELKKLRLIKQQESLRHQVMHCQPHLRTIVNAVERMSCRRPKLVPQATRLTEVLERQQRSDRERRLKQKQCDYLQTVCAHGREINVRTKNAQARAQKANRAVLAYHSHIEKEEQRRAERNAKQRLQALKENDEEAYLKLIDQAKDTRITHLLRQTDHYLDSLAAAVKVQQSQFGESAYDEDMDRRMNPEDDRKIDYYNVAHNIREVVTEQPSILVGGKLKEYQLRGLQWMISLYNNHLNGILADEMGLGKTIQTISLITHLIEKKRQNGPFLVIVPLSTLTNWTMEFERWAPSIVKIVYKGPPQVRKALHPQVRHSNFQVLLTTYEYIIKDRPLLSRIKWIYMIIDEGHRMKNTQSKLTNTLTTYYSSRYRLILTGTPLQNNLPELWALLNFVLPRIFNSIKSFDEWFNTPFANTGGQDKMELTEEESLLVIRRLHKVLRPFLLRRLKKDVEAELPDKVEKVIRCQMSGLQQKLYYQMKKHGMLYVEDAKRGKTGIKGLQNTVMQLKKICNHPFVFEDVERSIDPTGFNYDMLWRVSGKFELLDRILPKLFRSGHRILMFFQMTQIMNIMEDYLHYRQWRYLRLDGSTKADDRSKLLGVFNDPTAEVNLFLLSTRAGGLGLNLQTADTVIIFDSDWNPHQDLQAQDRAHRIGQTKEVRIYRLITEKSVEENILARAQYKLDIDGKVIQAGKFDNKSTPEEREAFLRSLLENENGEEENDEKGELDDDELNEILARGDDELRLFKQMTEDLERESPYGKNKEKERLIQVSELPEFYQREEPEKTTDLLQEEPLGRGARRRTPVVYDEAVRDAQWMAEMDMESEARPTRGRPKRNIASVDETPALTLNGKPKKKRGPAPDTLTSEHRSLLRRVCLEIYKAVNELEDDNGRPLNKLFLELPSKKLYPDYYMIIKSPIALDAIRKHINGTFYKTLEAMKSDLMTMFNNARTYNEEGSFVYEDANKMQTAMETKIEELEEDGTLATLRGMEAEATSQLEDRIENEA
UniProt P32597, residues 365-1097: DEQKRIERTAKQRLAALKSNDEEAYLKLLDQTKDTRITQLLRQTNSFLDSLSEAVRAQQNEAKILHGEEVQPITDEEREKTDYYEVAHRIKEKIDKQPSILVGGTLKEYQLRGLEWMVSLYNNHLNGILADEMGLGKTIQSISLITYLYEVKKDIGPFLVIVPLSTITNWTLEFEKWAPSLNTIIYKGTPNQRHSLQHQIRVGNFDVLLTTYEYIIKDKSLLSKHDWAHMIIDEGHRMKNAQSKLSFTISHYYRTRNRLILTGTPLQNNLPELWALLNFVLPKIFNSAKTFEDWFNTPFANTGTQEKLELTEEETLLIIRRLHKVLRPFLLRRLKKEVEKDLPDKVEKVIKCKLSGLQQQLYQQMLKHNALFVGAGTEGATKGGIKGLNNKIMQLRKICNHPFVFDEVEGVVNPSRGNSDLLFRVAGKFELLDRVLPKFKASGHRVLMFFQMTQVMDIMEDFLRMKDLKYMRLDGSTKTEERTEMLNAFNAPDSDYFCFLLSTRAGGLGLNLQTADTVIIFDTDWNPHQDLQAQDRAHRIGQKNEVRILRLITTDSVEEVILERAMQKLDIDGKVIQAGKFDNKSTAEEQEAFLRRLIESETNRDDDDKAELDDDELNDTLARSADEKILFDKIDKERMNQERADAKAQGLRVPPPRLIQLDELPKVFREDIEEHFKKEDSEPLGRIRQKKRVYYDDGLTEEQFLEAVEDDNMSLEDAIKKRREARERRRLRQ

What was measured:
[1] = target: T1, Scc4-Scc2N cohesin loader module (S. cerevisiae) (UniProt P40090+Q04002); test: pull-down; 10 pmol Scc2-Scc4, Scc2C or Scc4-Scc2N on anti-HA protein A magnetic beads, 5 uM Sth1 365-1097, 4 C 30 min, IP buffer; Coomassie Blue staining; repeated without nucleotide, with ATP or with ADP-BeF3 (ADP-BeF3 markedly increased the interaction); both purified
T1 sequence 1: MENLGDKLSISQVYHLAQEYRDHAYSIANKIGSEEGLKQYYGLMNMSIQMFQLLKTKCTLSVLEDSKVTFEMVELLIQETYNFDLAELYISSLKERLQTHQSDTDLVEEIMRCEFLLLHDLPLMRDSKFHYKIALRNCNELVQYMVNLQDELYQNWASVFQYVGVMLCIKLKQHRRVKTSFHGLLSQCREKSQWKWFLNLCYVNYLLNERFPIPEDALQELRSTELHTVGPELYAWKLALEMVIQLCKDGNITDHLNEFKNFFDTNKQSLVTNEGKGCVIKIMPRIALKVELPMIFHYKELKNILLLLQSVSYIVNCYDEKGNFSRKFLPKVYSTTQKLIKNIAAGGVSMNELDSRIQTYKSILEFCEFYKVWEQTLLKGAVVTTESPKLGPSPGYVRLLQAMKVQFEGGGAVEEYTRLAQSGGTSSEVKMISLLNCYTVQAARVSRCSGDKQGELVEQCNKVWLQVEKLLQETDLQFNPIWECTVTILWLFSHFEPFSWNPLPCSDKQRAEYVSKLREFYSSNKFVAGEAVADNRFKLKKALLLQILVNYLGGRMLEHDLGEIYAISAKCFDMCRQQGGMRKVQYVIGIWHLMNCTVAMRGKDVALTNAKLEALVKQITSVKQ
T1 sequence 2: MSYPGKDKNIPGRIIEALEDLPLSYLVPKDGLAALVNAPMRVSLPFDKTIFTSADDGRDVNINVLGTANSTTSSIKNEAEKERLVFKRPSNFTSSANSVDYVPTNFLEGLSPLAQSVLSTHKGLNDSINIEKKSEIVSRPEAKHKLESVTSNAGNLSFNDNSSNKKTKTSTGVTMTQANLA

[2] = target: Rsc2 fused to Pk epitope tags (S. cerevisiae) (UniProt Q06488); test: co-IP; S. cerevisiae cell extracts in EBX buffer (100 mM KCl, 0.25% Triton X-100, RNase and benzonase); Pk-tagged Rsc1 or Rsc2 on anti-Pk protein A Dynabeads, last wash 300 mM KCl; HA-tagged Scc2 or Scc4 detected by immunoblotting
[3] = target: T2, Rsc1 fused to Pk epitope tags (S. cerevisiae) (UniProt P53236); test: as above
T2 sequence: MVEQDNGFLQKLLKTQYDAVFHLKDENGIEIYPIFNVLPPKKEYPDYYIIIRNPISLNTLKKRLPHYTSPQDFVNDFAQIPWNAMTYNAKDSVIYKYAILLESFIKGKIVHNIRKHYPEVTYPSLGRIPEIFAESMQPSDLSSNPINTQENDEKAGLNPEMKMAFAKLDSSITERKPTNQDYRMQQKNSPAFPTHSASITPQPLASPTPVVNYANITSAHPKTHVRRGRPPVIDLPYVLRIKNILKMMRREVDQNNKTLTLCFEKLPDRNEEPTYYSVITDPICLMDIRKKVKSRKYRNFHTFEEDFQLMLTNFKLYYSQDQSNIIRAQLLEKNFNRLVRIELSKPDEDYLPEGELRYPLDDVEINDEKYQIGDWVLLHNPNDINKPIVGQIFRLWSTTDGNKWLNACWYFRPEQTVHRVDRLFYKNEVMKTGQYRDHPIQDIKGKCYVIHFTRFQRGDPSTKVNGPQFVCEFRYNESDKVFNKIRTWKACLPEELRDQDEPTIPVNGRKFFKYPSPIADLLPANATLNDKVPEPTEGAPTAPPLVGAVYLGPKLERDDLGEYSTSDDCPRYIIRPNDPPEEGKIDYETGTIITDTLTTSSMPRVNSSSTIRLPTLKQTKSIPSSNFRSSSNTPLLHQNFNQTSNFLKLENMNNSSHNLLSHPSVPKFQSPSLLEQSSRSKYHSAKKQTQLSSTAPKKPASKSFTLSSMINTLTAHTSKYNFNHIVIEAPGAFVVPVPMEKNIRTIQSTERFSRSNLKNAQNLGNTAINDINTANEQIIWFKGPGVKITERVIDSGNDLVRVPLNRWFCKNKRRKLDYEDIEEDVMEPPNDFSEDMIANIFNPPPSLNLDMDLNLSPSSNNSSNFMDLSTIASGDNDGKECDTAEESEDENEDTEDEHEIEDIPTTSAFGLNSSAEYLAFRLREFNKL

[4] = target: fission yeast RSC complex (its ATPase subunit fused to a protein A tag) (S. pombe) (UniProt Q9UTN6); test: pull-down; S. cerevisiae or S. pombe cell extracts in EBX buffer with RNase and benzonase; protein A-tagged remodeler ATPase subunits on IgG-coated Dynabeads, last wash 300 mM KCl; Scc4 or Ssl3 detected by immunoblotting; performed once

binding [1]: binds
Molecule: Sth1 365-1097 fragment (ATPase motor module) (from UniProt P32597 365-1097) (domain or fragment)

binding [2]: binds
binding [3]: binds
Molecule: cohesin loader with an HA epitope on its Scc2 subunit (from UniProt Q04002 1-1493; P40090 1-624) (complex)

binding [2]: binds
binding [3]: binds
Molecule: cohesin loader with an HA epitope on its Scc4 subunit (from UniProt Q04002 1-1493; P40090 1-624) (complex)

binding [4]: binds
B1: Ssl3, the fission yeast Scc4 ortholog (protein, UniProt O94459 1-559)
chain: MTGLNETDARILVTSRHLFLWPLAETYFKNAEKVLQDCGVCDSFGRLLSTGLQCLYSVLMDTKMEPRVELLTRKRICEVLLSHTVEYADVEAILNRALIIAEQHNLTEYKFSLQLLLSRVFCRTSPKAAKVLLTRCVREAEEYAKVAEIYHSNNQSNPHRWVYEFLLATLEFQNVSQVANSIHNYANHHKHQHLQLLAMILNQSLPMDEISTDSDQISILCLVTQIAQCLRKGEILLAREILPKIHSKLESETFVWPSSYIDFFIDDTSKISIKWMSINQLYLLIYLISGFCYISDSTSGRASRFLQEGLRITGDFKHQERCVLEYLESQKWINNITKDMKYYLIATYLSRSRLSKAERILQSTEDDQTGFLGILKGMYLQKRGDLKKAEVHYRETAKNFSFRTDTFIISTLNLINILEDSAAASRCLESIEPLCNKHEKKIFKLWLLVLKVIREGPQVHQSNVLPRVIQQSSEYANTQLQYISLTELSERFGKLEHAEKMAISALELAKKSKDELWCLISGRILEDFYRSVQKYDKMRQQALENSAYSKLIEDIYSFV
